# Assay results reported in article PMC5996148.
# The other results are listed elsewhere or left out.
# Tests used:
# Experiment in all cases: protein microarray (ProtoArray v5.0), streptavidin-Alexa Fluor 647
# Conditions in all cases: 3'-biotin; 20 mM Tris (pH 7.5), 5 mM MgCl2, 100 mM KCl, 0.1% Tween-20, A/T-rich and random oligonucleotide blockers; temperature not stated; high values mean tight binding
# NPL (human) = tested on: NPL (human)
# NPPA (human) = tested on: NPPA (human)
# NPY (human) = tested on: NPY (human)
# NQO2 (human) = tested on: NQO2 (human)
# NRARP (human) = tested on: NRARP (human)
# NRBF2 (human) = tested on: NRBF2 (human)
# NSUN3 (human) = tested on: NSUN3 (human)
# NT5C3L (human) = tested on: NT5C3L (human)
# NT5DC1 (human) = tested on: NT5DC1 (human)
# NTS (human) = tested on: NTS (human)
sequence,measurement,setting,value
GGGAGGCTGAGGCAGG [G4-1 biotinylated (PQS2)],binding signal,NPL (human),-0.343 z-score
same,binding signal,NPPA (human),-0.284 z-score
same,binding signal,NPY (human),-0.316 z-score
same,binding signal,NQO2 (human),-0.296 z-score
same,binding signal,NRARP (human),-0.348 z-score
same,binding signal,NRBF2 (human),-0.354 z-score
same,binding signal,NSUN3 (human),-0.277 z-score
same,binding signal,NT5C3L (human),-0.331 z-score
same,binding signal,NT5DC1 (human),-0.262 z-score
same,binding signal,NTS (human),-0.346 z-score

# In another format: entries from further up
sequence | measurement | setting | value
GGGAGGCTGAGGCAGG [G4-1 biotinylated (PQS2)] | binding signal | NPY (human) | -0.316 z-score
same | binding signal | NQO2 (human) | -0.296 z-score
